Patent US20260250381A1

Target: human TREM2 (human)
Assay: antibody competition assay

| Binder | binding |
| --- | --- |
| 10E3 (antibody, V domains shown) VH: EVQLVQSGAEVKKPGESLMISCKGSGYSFTNYWIGWVRQMPGKGLEWMGIIYPGDSDTRYSPSFQGQVTISADKSISTAYLQWSSLKASDTAMYFCARRRQGIWGDALDIWGQGTLVTVSS VL: EIVMTQSPATLSVSPGERATLSCRASQSVSSNLAWFQQKPGQAPRLLIYGASTRATGIPARFSVSGSGTEFTLTISSLQSEDFAFYYCLQDNNWPPTFGPGTKVDIK | binds |
| 26C10 (antibody, V domains shown) VH: EVQLVESGGALVQPGGSLRLSCAASGFTFSSFGMSWVRQAPGKGLEWVSYISSSSFTIYYADSVKGRFTISRDNAKNSFYLQMNSLRDEDTAVYFCVREGGITMVRGVSSYGMDVWGQGTTVTVSS VL: SFELTQPPSVSVSPGQTASITCSGDKLGDKYVCWYQQKPGQSPMLVIYQDTKRPSGIPERFSGSNSGNTATLTISGTQAMDEADYYCQAWDSSTVVFGGGTKLTVL | binds |
| 5E3 (antibody, V domains shown) VH: QVQLVQSGAEVKKPGASVKVSCKASGYTFTGYYIHWVRQAPGLGLEWMGWINPYSGGTTSAQKFQGRVTMTRDTSISSAYMELSRLRSDDTAVYYCARDGGYLALYGTDVWGQGTTVTVSS VL: DIQMTQSPSSLSASVGDRVTITCRASQGISNYLAWFQQKPGKAPKSLIYAASSLQSGVPSKFSGSGSGTDFTLTISSLQPEDFATYYCQQYSTYPFTFGPGTKVDIK | binds |
| 13E7 (antibody, V domains shown) VH: EVQLVQSGAEVKKPGESLMISCKGSGYSFTSYWIGWVRQMPGKGLEWMGIIYPGDSDTRYSPSFQGQVTISADKSISTAYLQWSSLKASDTAMYFCARRRQGIWGDALDFWGQGTLVTVSS VL: EIVMTQSPATLSVSPGERATLSCRASQSVSSNLAWFQQKPGQAPRLLIYGASTRATGIPARFSVSGSGTEFTLTISSLQSEDFAVYYCLQDNNWPPTFGPGTKVDIK | binds |
| 4C5 (antibody, V domains shown) VH: EVQLVQSGAEVKKPGESLKISCKGSGHSFTNYWIAWVRQMPGKGLEWMGIIYPGDSDTRYSPSFQGQVTISADKSISTAYLQWSSLKASDTAVYFCARQRTFYYDSSGYFDYWGQGTLVTVSS VL: DIQMTQSPSSVSASVGDRVTITCRASQGISNWLAWYQQKPGKAPKLLIYAASSLQVGVPLRFSGSGSGTDFTLTISSLQPEDFATYYCQQADSFPRNFGQGTKLEIK | binds |
| 4G10 (antibody, V domains shown) VH: EVQLVQSGAEVKKPGESLKISCKGSGYSFPSYWIAWVRQMPGKGLEWMGIIYPGDSDTRYSPSFQGQVTISADKSISTAFLKWSSLKASDTAMYFCARQGIEVTGTGGLDVWGQGTTVTVSS VL: DIQMTQSPSSLSASVGDRVTITCRASQGIRNDLGWYQQKPGNAPKRLIYAASSLPSGVPSRFSGSGSGPEFTLTISSLQPEDFATYYCLQHNSYPWTFGQGTKVEIT | binds |
| 32E3 (antibody, V domains shown) VH: EVQLVQSGAEVKKPGESLKISCKGSGYSFTSYWIGWVRQMPGKGLEWMGIIYPGDSDTRYSPSFQGQVTISADKSISTAYLQWSTLKASDTAIYYCARHDIIPAAPGAFDIWGQGTMVTVSS VL: EFVLTQSPGTLSLSPGERATLSCRASQIISSNYLAWYQQKPGQAPRLLIYSASSRATGIPDRFSGSGSGTDFTLTISRLEPEDFAVYYCQQFDSSPITFGRGTRLDIK | binds |
| 6E7 (antibody, V domains shown) VH: EVQLVQSGAEVKKPGESLKISCKGSGYSFTSYWIAWVRQMPGKGLEWMGIIYPGDSDTRYSPSFQGQVTISADKSISTAYLQWSSLKASDTAMYFCARQRTFYYDSSDYFDYWGQGTLVTVSS VL: DIQMTQSPSSVSASVGDRVTITCRASQGISSWLAWYQQKPGKAPKLLIYAASSLQNGVPSRFSGSGSGTDFTLTISSLQPEDFATYFCQQADSFPRTFGQGTKLEIK | binds |
| 16B8 (antibody, V domains shown) VH: QVQLVQSGAEVKKPGASVKVSCKASGYTFTNYGISWVRQAPGQGLEWMGWISAYNGNTNYAQKLQGRVTMTTDTSTSTVYMELRSLRSDDTAVYYCARRGYSYGSFDYWGQGTLVTVSS VL: DIQMTQSPSSVSASVGDRVTVTCRASQDINSWLAWYQQKPGKAPKLLIYAASSLQTGVPSRFSGSGSGTDFTLTISSLQPEDFATYSCQQSNSFPITFGQGTRLEIK | binds |

Results are given in words; binding and its absence hold for the method and conditions named. Binding can be weak; no strength is given.
